This passage reports binding signal results from paper PMC7819943, “Rice protein-binding microarrays: a tool to detect cis-acting elements near promoter regions in rice”.

By UniProt entry, the sequences of proteins in these tests, tags left out.
UniProt Q0JBA9, entry or part of it: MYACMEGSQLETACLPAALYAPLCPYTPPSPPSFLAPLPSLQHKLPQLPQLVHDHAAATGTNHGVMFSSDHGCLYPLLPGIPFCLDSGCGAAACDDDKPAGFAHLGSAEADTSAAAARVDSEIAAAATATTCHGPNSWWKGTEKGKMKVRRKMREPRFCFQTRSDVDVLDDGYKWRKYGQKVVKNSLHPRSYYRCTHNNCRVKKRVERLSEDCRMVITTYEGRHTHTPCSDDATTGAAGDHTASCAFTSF

The list shows a part of the results.

The target of this test is OsWRKY34 (Oryza sativa, UniProt Q0JBA9 1-250). Put plainly: protein-binding microarray (RPBM); PBS, 2% BSA, 51.3 ng/ul salmon testes DNA, 50 uM zinc acetate, 200 nM TF, 25 C, 1 h; high values mean tight binding. The settings on record: protein: recombinant; tags: N-terminal polyhistidine and DsRed monomer fusion (pET32a); label: CyDye5-dUTP incorporated in the synthesized complementary strand; 3' TTTTT single-stranded linker to array surface; dsDNA, one strand shown. Put shortly:
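Per-feature fluorescence intensity (arbitrary units), read on an Axon 4000B scanner, is the binding signal. Transcription factors carrying an N-terminal polyhistidine tag and DsRed fusion were expressed in E. coli BL21-CodonPlus and purified on Ni–NTA. A custom Agilent array, made double-stranded by primer extension with Cy5-dUTP and blocked with 2% BSA, was incubated with 200 nM protein in PBS, 2% BSA, salmon testes DNA and 50 µM zinc acetate at 25 °C for 1 h and then washed.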
For the sequence “TTCGTGCTCTTATGATTTACAGATCCACTCAAATCGCTTCCGGAGTCACCTAGTGCAG”, the binding signal is 11500 fluorescence intensity (a.u.).
For “CTCCGCCACGACGTGTCCGCGTCCCGTCCACTCGCCCGATCGGAGTCACCTAGTGCAG”, the binding signal was 11200 fluorescence intensity (a.u.).
For “CCAACACCTCAAGTCTTTGGGTCAACGGTCAACGTTATTACGGAGTCACCTAGTGCAG” the value was 9860 fluorescence intensity (a.u.).
The figure for “ACACTGTTGAGCACATTTGATTTTCATCGTTCATTTCCCTCGGAGTCACCTAGTGCAG” is 8970 fluorescence intensity (a.u.); for “CTTAGTACAAGAATCACATCTGCATATCTTCCCTGCAACCCGGAGTCACCTAGTGCAG” it is 9510 fluorescence intensity (a.u.).
For “AGGGTTCAAAGGTGGATGGTTGTGATCCAGATCTACTATGCGGAGTCACCTAGTGCAG” the value was 8400 fluorescence intensity (a.u.); for “GGAATCCAGATCTCACCCACCCCACCCCACCCACACGACGCGGAGTCACCTAGTGCAG”, 8640 fluorescence intensity (a.u.).
Regarding “TCCATGCACGTCATTTCCTTTTATATCTAGCTATAATTAACGGAGTCACCTAGTGCAG”, the binding signal was 8500 fluorescence intensity (a.u.).
For “ATGTTGGTCTCATTTTCGTTTGCTGCTGGTTACTTGTATTCGGAGTCACCTAGTGCAG” the value was 10800 fluorescence intensity (a.u.); for “CTAACCACGCATCACCTAACTGCAAAAAACGTGTTTTACTCGGAGTCACCTAGTGCAG”, 8410 fluorescence intensity (a.u.); for “TTAAAGGTTTTTTTATTCCGATAAATTTTCGTTACCGTATCGGAGTCACCTAGTGCAG”, 8870 fluorescence intensity (a.u.).
On to “TCTATTCCATCTCCAGCGGCTCTCCACCACCAGGTCCACACGGAGTCACCTAGTGCAG”, for which the binding signal was 8140 fluorescence intensity (a.u.).
For “TTGTTTCTGCCATCAAGCTTTTCTTTTTCTGACACATGCACGGAGTCACCTAGTGCAG” the value was 9050 fluorescence intensity (a.u.).
The figure for “CAGTGGGTTGTGGGTGTGGTTGGTCGGCCAGCGCTGGAGCCGGAGTCACCTAGTGCAG” is 12600 fluorescence intensity (a.u.).
For “TTAAGTCGTTTGATTTTTCTTAGTTAAACTTTTTTATATTCGGAGTCACCTAGTGCAG” the value was 8230 fluorescence intensity (a.u.); for “ACTATTCATACTTCGAATTTATCTTCTTTTTATATATCTCCGGAGTCACCTAGTGCAG”, 9390 fluorescence intensity (a.u.); for “ATTCTTTAGTTTGTCTACTTGCATGGTTGTTGTAAAGTCACGGAGTCACCTAGTGCAG”, 15200 fluorescence intensity (a.u.).
“GTCGAGAGATCGCCTCTTCTTCTGCTTGCCCCGCCGCCTTCGGAGTCACCTAGTGCAG”: the binding signal is 8180 fluorescence intensity (a.u.).
For “TCTCCTATCCAGTTGGATTCCCAAAATTTCGCCTTTCGTCCGGAGTCACCTAGTGCAG” the value was 8070 fluorescence intensity (a.u.); for “CTGACGTGGCAGTGTTGACCTGATTTTTGTCCCACGTGGCCGGAGTCACCTAGTGCAG”, 10400 fluorescence intensity (a.u.); for “TTTGGTAGGGATGTTGTGTTTTCTTTGCGAACACCGGTGACGGAGTCACCTAGTGCAG”, 12800 fluorescence intensity (a.u.).
For “CTTTCGCCTTTTTTTTCACTTTTCTTTTTGTGGTTGTGGGCGGAGTCACCTAGTGCAG” the value was 9790 fluorescence intensity (a.u.); for “TGCCTTTCACCCTGGGTTATGCGTATCCTTATCTGAATATCGGAGTCACCTAGTGCAG”, 9680 fluorescence intensity (a.u.).
